Experimental data from paper PMC6326811.
Results are given in words; binding and its absence hold for the method and conditions named. In cells and extracts the contact can be indirect. Some entries that bind do so weakly or less than the wild type.

The chains behind the UniProt entries cited, without tags or fusion partners.
UniProt Q9BUR4: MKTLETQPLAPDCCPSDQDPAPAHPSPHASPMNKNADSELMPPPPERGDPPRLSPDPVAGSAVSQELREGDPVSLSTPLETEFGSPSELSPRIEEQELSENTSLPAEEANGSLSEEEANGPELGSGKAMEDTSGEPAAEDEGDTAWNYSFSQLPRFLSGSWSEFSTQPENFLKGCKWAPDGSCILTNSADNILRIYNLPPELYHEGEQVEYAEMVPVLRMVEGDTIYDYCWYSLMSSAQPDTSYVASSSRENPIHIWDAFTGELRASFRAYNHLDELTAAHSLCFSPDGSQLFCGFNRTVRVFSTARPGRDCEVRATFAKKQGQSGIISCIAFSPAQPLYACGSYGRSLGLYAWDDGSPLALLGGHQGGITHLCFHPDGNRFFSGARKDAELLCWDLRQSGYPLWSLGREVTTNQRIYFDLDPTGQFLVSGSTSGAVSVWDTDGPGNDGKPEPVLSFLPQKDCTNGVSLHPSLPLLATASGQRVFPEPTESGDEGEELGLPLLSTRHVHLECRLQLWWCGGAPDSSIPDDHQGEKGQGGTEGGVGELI
UniProt O14746: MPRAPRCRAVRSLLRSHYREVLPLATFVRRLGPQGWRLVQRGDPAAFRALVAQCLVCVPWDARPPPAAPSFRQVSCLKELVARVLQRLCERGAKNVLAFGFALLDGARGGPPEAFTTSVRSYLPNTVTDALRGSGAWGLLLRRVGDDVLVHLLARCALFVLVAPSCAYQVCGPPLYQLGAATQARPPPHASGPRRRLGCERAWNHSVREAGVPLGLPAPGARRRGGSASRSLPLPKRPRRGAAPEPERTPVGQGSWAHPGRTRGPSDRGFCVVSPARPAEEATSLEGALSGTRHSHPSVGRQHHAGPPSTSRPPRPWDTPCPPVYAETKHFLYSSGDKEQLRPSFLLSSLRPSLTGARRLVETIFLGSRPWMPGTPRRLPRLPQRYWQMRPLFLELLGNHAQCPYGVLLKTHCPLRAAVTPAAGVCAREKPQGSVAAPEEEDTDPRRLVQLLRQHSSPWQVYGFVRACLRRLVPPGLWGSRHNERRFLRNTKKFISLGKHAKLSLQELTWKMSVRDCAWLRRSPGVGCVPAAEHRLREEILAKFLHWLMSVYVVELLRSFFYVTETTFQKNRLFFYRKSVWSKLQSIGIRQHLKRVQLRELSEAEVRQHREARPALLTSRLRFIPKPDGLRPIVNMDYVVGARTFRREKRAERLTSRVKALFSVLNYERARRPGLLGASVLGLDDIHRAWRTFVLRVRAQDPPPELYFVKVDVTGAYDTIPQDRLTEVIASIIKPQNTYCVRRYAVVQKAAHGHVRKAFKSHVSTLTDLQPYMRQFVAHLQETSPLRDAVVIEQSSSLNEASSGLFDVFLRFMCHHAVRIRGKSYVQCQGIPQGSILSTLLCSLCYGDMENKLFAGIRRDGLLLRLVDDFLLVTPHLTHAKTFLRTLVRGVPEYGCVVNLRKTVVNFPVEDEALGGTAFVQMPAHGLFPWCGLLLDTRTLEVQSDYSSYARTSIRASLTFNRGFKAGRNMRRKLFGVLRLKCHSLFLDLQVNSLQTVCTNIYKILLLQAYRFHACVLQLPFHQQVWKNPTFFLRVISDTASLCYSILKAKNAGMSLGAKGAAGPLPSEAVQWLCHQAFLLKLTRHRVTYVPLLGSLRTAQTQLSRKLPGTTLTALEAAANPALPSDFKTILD

Experiments:
Assay in all cases: co-IP; GST-TOE1 transiently co-expressed in 293T cells with FLAG-HA-tagged proteins; IP with anti-FLAG agarose beads; blots with anti-FLAG and anti-GST
[1] = target: FLAG-HA-tagged TCAB1 (human) (UniProt Q9BUR4)
[2] = target: FLAG-HA-tagged TERT (human) (UniProt O14746)
[3] = target: FLAG-HA-tagged full-length wild-type TOE1 (human) (UniProt Q96GM8)

Measured: binding

GST-tagged TOE1 (from UniProt Q96GM8 1-510)
binds: all assays above
